Experimental data: paper PMC9736777, “Expression and Characterization of Monomeric Recombinant Isocitrate Dehydrogenases from Corynebacterium glutamicum and Azotobacter vinelandii for NADPH Regeneration” (International Journal of Molecular Sciences, 2022)
Results are given in words; binding and its absence hold for the method and conditions named.

Biological target: isocitrate dehydrogenase from Corynebacterium glutamicum (Corynebacterium glutamicum) (UniProt P50216)
Assay: SEC; analytical SEC, Superdex 200 Increase 10/300 GL, PBS pH 7.4, 75-100 ug purified protein injected, 0.5 mL/min, calibrated with size markers; both purified

B1: isocitrate dehydrogenase from Corynebacterium glutamicum (enzyme, UniProt P50216 1-738)
chain: MAKIIWTRTDEAPLLATYSLKPVVEAFAATAGIEVETRDISLAGRILAQFPERLTEDQKVGNALAELGELAKTPEANIIKLPNISASVPQLKAAIKELQDQGYDIPELPDNATTDEEKDILARYNAVKGSAVNPVLREGNSDRRAPIAVKNFVKKFPHRMGEWSADSKTNVATMDANDFRHNEKSIILDAADEVQIKHIAADGTETILKDSLKLLEGEVLDGTVLSAKALDAFLLEQVARAKAEGILFSAHLKATMMKVSDPIIFGHVVRAYFADVFAQYGEQLLAAGLNGENGLAAILSGLESLDNGEEIKAAFEKGLEDGPDLAMVNSARGITNLHVPSDVIVDASMPAMIRTSGHMWNKDDQEQDTLAIIPDSSYAGVYQTVIEDCRKNGAFDPTTMGTVPNVGLMAQKAEEYGSHDKTFRIEADGVVQVVSSNGDVLIEHDVEANDIWRACQVKDAPIQDWVKLAVTRSRLSGMPAVFWLDPERAHDRNLASLVEKYLADHDTEGLDIQILSPVEATQLSIDRIRRGEDTISVTGNVLRDYNTDLFPILELGTSAKMLSVVPLMAGGGLFETGAGGSAPKHVQQVQEENHLRWDSLGEFLALAESFRHELNNNGNTKAGVLADALDKATEKLLNEEKSPSRKVGEIDNRGSHFWLTKFWADELAAQTEDADLAATFAPVAEALNTGAADIDAALLAVQGGATDLGGYYSPNEEKLTNIMRPVAQFNEIVDALKK
- binding: no binding (tested: 75-100 ug injected)
